{"sequences": {"note": "By UniProt entry, the sequences of proteins in these tests, tags left out. Where a name states a change or a piece, a line headed by the entry shows the natural chain unless it says otherwise.", "UniProt Q07878": "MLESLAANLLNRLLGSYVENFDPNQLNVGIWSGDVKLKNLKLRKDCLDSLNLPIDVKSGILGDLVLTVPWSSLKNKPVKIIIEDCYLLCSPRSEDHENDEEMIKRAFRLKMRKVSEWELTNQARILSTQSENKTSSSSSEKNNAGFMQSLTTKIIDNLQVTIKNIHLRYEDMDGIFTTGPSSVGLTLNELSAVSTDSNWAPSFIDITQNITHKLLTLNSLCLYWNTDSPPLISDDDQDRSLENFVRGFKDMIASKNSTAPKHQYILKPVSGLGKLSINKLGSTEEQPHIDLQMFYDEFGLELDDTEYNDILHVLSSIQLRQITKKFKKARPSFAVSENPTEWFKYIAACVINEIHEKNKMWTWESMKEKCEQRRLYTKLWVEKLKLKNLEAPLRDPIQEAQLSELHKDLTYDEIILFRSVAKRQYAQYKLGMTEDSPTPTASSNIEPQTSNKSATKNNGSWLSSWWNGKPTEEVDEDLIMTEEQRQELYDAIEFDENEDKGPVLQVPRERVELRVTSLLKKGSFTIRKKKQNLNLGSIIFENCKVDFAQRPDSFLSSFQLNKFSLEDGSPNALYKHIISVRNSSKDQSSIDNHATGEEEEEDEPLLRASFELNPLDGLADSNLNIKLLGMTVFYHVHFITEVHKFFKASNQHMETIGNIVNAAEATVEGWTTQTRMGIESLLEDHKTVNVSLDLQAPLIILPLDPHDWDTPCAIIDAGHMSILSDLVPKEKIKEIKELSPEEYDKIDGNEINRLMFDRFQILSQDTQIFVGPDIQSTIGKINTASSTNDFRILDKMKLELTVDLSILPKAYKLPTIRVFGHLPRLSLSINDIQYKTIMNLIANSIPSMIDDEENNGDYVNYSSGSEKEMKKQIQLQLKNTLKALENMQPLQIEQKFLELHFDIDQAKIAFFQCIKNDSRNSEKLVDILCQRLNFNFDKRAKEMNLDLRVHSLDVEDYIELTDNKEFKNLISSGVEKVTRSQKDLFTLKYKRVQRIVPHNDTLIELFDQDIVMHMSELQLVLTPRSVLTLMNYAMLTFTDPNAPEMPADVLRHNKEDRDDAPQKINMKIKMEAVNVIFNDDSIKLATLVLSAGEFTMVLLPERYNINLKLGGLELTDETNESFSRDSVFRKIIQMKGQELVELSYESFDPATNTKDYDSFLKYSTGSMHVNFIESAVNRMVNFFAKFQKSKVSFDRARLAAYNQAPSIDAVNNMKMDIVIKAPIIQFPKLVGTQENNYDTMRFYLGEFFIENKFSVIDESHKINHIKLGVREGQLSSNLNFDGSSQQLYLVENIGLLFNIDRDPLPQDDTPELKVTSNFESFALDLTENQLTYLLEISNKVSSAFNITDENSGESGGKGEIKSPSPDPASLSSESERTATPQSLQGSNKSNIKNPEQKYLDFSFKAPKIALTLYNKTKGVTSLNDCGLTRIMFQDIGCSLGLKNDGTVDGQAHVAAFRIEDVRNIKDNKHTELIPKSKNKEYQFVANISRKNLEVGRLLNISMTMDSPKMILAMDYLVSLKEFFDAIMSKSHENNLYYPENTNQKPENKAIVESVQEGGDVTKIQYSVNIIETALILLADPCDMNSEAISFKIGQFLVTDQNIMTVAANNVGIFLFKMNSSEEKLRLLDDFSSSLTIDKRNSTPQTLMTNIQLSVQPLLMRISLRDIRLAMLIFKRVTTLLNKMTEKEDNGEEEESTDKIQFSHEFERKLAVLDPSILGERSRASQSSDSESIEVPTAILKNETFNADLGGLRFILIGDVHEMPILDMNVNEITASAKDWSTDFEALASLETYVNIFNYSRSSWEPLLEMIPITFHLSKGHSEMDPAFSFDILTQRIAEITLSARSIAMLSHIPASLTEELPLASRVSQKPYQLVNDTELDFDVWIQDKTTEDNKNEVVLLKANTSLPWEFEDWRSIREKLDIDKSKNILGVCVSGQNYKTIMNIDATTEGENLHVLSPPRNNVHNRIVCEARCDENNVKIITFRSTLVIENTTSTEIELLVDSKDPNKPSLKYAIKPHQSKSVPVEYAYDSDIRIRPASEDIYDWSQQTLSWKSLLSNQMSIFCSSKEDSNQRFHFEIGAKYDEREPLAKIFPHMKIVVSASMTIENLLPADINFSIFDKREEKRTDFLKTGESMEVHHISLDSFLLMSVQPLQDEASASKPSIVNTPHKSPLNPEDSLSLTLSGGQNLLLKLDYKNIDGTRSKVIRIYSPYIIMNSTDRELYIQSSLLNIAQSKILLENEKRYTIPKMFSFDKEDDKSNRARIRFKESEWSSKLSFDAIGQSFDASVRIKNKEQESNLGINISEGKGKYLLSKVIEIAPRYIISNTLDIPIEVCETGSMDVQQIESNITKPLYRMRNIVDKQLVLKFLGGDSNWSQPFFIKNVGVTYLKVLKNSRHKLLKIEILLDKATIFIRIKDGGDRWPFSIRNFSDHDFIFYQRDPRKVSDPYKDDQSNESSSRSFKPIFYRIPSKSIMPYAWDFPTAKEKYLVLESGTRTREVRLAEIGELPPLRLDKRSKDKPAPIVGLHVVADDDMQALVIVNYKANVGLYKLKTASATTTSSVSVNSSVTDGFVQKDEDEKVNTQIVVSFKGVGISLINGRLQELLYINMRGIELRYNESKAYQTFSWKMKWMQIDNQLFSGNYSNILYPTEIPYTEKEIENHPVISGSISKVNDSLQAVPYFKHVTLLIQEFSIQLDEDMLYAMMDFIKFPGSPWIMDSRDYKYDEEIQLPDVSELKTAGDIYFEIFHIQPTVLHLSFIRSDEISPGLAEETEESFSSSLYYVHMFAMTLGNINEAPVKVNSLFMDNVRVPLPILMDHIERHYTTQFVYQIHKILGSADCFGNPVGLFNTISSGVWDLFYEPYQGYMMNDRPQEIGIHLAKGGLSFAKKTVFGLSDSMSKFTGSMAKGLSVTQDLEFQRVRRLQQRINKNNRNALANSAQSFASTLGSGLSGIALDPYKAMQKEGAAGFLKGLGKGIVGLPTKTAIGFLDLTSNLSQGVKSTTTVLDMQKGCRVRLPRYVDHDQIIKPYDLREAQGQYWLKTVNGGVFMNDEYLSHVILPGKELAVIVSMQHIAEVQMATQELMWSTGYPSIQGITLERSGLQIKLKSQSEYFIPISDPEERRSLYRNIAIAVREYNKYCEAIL"}, "source": "paper PMC5393151", "key": {"[1]": {"molecular_target": "Vps13-GFP (S. cerevisiae) (UniProt Q07878)", "experiment": "co-IP; GFP-tagged Vps13 precipitated with GFP-Trap magnetic beads from yeast extracts (glass beads; 50 mM HEPES pH 7.5, 100 mM NaCl, 1 mM MgCl2, 0.5% Triton X-100), 2 h at 4 °C, five washes with 50 mM HEPES pH 7.5; western blot with anti-GFP and anti-actin"}, "[2]": {"molecular_target": "Vps13-I2749R-GFP (S. cerevisiae) (UniProt Q07878)", "experiment": "co-IP; GFP-tagged Vps13 precipitated with GFP-Trap magnetic beads from yeast extracts (glass beads; 50 mM HEPES pH 7.5, 100 mM NaCl, 1 mM MgCl2, 0.5% Triton X-100), 2 h at 4 °C, five washes with 50 mM HEPES pH 7.5; western blot with anti-GFP and anti-actin"}}, "note": "No constants are given. Whether binding was seen depends on the method and setting. Binding seen in cells or lysates may run through a third protein. Some results given as binding are weak or reduced against the parent protein; the word gives no strength.", "data": [{"substance": "actin (from UniProt P60010 1-375)", "values": [{"measurement": "binding", "setting": "[1]", "value": "binds"}, {"measurement": "binding", "setting": "[2]", "value": "binds"}]}]}
